No constants are given. Whether binding was seen depends on the method and setting. For some of these results: In cells and extracts the contact can be indirect. Blank lines part the entries; values can stand above or below the substance they belong to.
What was measured:
[1] = biological target: GST-C8ORF88(Δ6) (not stated (human or mouse cDNA cloned)) (UniProt P0DMB2); assay: condition: 0.5 µg His-eIF4E with 2.5 µg GST protein in 50 µL; pull-down; GST pulldown: 2.5 µg GST protein with 0.5 µg His-eIF4E or His-eIF4E(W73A) in 50 µL Binding Buffer (20 mM Tris pH 7.5, 100 mM KCl, 10% glycerol, 0.1% NP-40), 1 h room temperature; Glutathione Sepharose 1 h on ice; eluted with 10 mM reduced glutathione; blots anti-GST and anti-His; both purified
[2] = biological target: His-eIF4E (UniProt P06730); assay: condition: 0.5 µg GST protein with 2.5 µg His-eIF4E in 50 µL; pull-down; cap-pulldown on m7GTP agarose of recombinant His-eIF4E (2.5 µg) with GST protein (0.5 µg) in 50 µL LCB Buffer, 1 h RT, then resin, GTP washes, m7GTP elution; blots anti-GST and anti-His (Figure S2); both purified
[3] = biological target: Flag-C8ORF88(Δ6) (HEK293T) (not stated (human or mouse cDNA cloned)) (UniProt P0DMB2); assay: co-IP; lysates (NP40 lysis buffer) of transfected HEK293T, 24 h post-transfection; anti-FLAG M2 magnetic beads 1 h on ice, 5 washes; blots anti-DDDDK and anti-eIF4E
[4] = biological target: Endogenous eIF4E (human (endogenous in HEK293T)) (UniProt P06730); assay: pull-down; m7GTP cap-affinity chromatography of lysates (NP40 lysis buffer) of transfected HEK293T; LCB washes, 500 µM GTP washes, eluted with 500 µM m7GTP; blots anti-DDDDK and anti-eIF4E

The chains behind the UniProt entries cited, without tags or fusion partners. Where a name states a change or a piece, a line headed by the entry shows the natural chain unless it says otherwise.
UniProt P0DMB2: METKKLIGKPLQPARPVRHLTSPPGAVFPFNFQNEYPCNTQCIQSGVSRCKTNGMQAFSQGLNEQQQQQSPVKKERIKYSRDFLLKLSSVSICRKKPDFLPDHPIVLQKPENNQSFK
UniProt P06730: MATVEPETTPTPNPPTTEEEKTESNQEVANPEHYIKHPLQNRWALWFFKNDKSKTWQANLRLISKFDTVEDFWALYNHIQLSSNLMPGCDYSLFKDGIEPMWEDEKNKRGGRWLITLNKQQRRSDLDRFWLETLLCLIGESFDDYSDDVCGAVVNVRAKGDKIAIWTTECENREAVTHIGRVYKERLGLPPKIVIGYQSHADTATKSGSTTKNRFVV

binding [1]: no binding
Substance: His-eIF4E (from UniProt P06730 1-217)

binding [2]: no binding
Substance: GST-C8ORF88(Δ6) (from UniProt P0DMB2)

binding [3]: no binding
Substance: Endogenous eIF4E (from UniProt P06730 1-217)

binding [4]: no binding
Substance: Flag-C8ORF88(Δ6) (HEK293T) (from UniProt P0DMB2)

Reference: article PMC10670996
